Laboratory results as given in paper PMC6071992.
Read-outs that look alike come from different tables or passages of the source. These are yes or no findings as the source states them, for the method shown. For some of these results: Binding calls can cover weak binding; strength is not graded here. For some of these results: Tags and fused reporters may be left off the sequences shown. For some of these results: In cells and extracts the contact can be indirect.

Protein sequences, listed by entry. Tags and fused reporters are not part of them.
UniProt Q9P2D1: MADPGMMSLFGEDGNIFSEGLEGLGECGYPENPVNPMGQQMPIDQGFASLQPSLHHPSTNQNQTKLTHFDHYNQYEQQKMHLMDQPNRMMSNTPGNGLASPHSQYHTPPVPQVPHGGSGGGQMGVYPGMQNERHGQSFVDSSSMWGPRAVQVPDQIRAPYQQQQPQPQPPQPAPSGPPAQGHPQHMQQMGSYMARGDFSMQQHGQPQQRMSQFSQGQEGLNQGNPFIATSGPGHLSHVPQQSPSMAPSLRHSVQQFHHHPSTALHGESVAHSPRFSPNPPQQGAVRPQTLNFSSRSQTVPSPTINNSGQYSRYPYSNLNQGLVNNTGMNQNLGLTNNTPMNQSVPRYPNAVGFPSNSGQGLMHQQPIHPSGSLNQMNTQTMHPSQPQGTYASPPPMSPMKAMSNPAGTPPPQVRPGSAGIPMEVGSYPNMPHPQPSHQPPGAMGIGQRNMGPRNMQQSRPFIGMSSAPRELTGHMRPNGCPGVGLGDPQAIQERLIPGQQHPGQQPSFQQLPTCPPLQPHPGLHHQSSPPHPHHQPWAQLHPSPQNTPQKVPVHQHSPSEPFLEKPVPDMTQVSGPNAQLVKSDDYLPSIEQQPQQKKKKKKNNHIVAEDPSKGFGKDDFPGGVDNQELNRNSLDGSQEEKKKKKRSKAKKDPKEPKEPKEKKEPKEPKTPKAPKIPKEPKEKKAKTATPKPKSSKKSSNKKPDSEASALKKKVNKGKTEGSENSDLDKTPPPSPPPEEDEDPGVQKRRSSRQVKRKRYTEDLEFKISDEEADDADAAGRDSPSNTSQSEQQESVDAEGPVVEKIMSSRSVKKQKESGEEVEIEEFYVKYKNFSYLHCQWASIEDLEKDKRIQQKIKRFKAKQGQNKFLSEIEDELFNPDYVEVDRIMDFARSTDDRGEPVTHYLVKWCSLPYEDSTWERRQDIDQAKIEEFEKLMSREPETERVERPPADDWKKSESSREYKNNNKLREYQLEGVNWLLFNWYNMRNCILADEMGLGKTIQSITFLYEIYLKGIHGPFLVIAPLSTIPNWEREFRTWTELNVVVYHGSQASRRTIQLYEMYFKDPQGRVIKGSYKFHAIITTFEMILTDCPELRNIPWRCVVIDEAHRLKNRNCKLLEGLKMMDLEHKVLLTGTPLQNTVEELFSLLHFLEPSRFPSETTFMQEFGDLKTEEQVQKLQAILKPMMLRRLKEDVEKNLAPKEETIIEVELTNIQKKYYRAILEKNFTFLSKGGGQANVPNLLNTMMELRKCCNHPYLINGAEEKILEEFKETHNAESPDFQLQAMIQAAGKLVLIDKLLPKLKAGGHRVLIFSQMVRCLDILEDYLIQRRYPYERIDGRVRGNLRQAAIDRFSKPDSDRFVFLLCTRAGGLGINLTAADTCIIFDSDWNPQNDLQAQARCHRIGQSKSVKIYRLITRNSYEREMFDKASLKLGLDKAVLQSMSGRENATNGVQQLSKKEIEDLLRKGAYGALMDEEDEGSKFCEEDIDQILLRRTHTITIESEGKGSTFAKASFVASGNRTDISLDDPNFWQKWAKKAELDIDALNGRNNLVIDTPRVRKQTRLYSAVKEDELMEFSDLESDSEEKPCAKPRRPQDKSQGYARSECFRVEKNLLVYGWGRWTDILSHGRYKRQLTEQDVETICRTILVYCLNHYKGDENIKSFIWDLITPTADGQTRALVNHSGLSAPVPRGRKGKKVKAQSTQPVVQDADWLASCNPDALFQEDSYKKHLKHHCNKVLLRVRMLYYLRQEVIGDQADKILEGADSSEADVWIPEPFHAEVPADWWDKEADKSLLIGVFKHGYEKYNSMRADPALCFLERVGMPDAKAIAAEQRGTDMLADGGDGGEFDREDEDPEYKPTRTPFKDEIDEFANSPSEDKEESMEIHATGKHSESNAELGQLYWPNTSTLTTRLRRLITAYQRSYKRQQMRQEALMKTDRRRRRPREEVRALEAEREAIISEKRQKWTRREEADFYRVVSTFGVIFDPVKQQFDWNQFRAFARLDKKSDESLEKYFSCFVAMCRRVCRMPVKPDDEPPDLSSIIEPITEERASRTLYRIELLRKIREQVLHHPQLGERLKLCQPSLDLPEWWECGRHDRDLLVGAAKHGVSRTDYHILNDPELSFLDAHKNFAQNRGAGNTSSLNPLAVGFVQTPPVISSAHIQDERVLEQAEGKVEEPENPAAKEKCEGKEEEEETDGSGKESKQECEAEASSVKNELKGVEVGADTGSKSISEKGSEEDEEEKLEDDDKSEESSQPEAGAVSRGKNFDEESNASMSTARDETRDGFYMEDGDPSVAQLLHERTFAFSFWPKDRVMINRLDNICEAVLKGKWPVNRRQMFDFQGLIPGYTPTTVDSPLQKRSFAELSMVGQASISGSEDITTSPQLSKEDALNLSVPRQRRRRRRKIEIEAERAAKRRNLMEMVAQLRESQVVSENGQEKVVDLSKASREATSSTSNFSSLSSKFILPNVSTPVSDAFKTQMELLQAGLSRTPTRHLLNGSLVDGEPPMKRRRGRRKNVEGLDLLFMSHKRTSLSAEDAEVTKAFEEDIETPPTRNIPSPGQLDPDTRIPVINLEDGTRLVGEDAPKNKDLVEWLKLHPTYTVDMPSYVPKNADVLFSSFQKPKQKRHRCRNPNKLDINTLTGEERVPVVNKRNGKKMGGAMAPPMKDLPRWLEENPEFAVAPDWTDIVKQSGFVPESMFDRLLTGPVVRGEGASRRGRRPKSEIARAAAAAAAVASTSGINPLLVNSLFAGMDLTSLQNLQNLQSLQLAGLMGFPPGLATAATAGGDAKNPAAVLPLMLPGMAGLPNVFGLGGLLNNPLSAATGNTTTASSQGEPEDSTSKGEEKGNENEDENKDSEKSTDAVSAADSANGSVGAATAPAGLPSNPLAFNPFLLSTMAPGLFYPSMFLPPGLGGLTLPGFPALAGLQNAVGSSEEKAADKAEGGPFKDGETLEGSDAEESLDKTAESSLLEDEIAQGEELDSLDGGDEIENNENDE
UniProt Q9ULW0: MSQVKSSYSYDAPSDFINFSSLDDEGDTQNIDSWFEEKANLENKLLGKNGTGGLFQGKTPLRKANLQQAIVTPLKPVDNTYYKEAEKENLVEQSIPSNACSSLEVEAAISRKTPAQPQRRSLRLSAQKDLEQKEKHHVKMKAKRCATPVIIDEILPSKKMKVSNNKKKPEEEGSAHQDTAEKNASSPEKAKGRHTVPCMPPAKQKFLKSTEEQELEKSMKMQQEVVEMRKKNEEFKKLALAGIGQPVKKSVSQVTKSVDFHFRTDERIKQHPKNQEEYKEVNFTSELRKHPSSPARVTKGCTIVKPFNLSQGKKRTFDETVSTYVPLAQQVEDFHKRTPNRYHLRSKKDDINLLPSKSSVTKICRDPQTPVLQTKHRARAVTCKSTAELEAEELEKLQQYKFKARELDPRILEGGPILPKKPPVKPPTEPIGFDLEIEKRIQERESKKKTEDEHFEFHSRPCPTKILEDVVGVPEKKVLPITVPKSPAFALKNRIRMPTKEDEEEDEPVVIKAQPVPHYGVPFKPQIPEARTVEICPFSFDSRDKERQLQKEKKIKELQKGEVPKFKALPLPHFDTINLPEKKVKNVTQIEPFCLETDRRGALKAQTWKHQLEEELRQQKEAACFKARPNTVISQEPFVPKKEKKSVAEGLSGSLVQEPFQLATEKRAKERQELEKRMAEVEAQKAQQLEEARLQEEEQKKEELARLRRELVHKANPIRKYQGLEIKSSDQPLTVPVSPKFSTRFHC

T1: HA-tagged full-length TBX18 protein (mouse) (UniProt Q9EPZ6)
T1 sequence: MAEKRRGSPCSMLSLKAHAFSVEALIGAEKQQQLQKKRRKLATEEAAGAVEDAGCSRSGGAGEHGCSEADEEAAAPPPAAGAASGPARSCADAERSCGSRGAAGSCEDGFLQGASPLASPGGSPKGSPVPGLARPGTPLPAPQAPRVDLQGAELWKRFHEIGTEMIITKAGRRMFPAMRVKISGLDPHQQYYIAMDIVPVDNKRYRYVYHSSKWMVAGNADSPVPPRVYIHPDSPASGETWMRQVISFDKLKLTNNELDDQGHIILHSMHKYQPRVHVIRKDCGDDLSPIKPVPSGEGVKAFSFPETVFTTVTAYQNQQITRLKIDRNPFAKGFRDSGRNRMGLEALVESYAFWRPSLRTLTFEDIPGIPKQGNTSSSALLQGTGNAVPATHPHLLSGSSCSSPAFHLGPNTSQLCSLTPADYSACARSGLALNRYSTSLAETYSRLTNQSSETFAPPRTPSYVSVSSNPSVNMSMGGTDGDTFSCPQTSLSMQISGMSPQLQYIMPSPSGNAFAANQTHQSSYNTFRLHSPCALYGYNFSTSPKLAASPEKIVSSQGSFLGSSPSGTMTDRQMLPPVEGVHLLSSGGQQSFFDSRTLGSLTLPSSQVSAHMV

T2: GST-TBX18 C-terminal region (aa 336-613) (mouse) (UniProt Q9EPZ6)
T2 sequence: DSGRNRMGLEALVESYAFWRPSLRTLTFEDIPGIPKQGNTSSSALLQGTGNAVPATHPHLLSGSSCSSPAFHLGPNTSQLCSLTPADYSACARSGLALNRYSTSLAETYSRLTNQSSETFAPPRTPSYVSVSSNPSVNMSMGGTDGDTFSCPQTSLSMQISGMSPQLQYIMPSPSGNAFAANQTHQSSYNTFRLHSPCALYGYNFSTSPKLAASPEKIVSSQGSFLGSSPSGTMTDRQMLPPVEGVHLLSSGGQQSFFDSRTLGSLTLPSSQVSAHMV

T3: GST-TBX18 N-terminal plus T-box (aa 1-345) (mouse) (UniProt Q9EPZ6)
T3 sequence: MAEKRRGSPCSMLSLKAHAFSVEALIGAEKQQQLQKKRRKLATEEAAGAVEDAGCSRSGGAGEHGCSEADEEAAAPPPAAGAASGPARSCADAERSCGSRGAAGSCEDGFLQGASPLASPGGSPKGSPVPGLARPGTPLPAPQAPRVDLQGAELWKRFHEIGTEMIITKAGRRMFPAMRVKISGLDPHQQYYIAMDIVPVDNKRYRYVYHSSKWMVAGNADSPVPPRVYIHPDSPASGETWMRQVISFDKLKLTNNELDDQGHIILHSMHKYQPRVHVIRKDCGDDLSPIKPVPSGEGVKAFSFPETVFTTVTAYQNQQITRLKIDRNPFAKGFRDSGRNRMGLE

T4: GST-TBX18 N-terminal region (aa 1-157) (mouse) (UniProt Q9EPZ6)
T4 sequence: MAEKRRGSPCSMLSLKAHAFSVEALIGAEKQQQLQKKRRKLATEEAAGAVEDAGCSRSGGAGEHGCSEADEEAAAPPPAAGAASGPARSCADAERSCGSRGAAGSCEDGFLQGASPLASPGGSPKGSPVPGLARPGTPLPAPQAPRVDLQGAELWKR

T5: GST-TBX18 T-box (aa 148-345) (mouse) (UniProt Q9EPZ6)
T5 sequence: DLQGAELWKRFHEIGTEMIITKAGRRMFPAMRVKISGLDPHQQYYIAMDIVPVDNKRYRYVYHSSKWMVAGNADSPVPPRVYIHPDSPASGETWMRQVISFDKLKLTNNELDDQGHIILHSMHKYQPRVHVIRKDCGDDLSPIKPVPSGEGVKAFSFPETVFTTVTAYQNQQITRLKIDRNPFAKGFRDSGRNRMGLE


How the values were obtained:
[1] = target: T1, HA-tagged full-length TBX18 protein (mouse); experiment: nuclear recruitment assay (immunofluorescence); modified assay: 293 cells co-transfected with full-length (nuclear) TBX18 and a candidate that lies outside the nucleus; recruitment of the candidate into the nucleus read by immunofluorescence against the tags
[2] = target: T2, GST-TBX18 C-terminal region (aa 336-613) (mouse); experiment: pull-down; GST-TBX18 domain fusion proteins on glutathione beads incubated 2 h with NP-40 extracts of 293 cells transfected with MYC- or HA-tagged candidates; washed 3 times with pull-down buffer (20 mM HEPES pH 7.9, 100 mM NaCl, 10 mM KCl, 5 mM MgCl2, 0.5 mM EDTA, 5% glycerol, 0.05% Triton X-100, 1 mM DTT); Western blot against the tags; only the target purified
[3] = target: T3, GST-TBX18 N-terminal plus T-box (aa 1-345) (mouse); experiment: as above
[4] = target: T4, GST-TBX18 N-terminal region (aa 1-157) (mouse); experiment: as above
[5] = target: T5, GST-TBX18 T-box (aa 148-345) (mouse); experiment: as above
[6] = target: MYC-tagged TBX18ΔNLS (mouse) (UniProt Q9EPZ6); experiment: nuclear recruitment assay (immunofluorescence); 293 cells co-transfected with TBX18ΔNLS (cytoplasmic) and a nuclear candidate protein; nuclear translocation of TBX18ΔNLS read by immunofluorescence against the tags after 2 days
[7] = target: HA-tagged TBX18 lacking the nuclear localization signal (mouse) (UniProt Q9EPZ6); experiment: as above
[8] = target: HA-tagged TBX18 lacking the nuclear localization signal (mouse) (UniProt Q9EPZ6); experiment: as above; remark: listed apart in the source

Molecule	binding [2]	binding [3]	binding [4]	binding [5]	also measured
MYC-tagged RCOR3	no binding	no binding	no binding	no binding	binding [1]: binds
HA-tagged SBNO2				binds	
MYC-tagged GAR1			binds weakly	binds	
MYC-tagged NCOA5			binds	binds weakly	
MYC-tagged IKZF2				binds	
MYC-tagged SSXB2	no binding	no binding	no binding	no binding	
HA-tagged CHD7 (from UniProt Q9P2D1 1-2997)					binding [6]: binds
MYC-tagged TPX2 (from UniProt Q9ULW0 1-747)					binding [7]: binds
MYC-tagged SUV39H2	no binding	no binding	no binding	no binding	
MYC-tagged B9D2 (protein, UniProt Q9BPU9 1-175) MAEVHVIGQIIGASGFSESSLFCKWGIHTGAAWKLLSGVREGQTQVDTPQIGDMAYWSHPIDLHFATKGLQGWPRLHFQVWSQDSFGRCQLAGYGFCHVPSSPGTHQLACPTWRPLGSWREQLARAFVGGGPQLLHGDTIYSGADRYRLHTAAGGTVHLEIGLLLRNFDRYGVEC					binding [8]: binds
